{"source": "PubChem BioAssay AID540276", "about": "(National Center for Advancing Translational Sciences (NCATS), 2011)", "note": "Where “and” joins values, the source holds several entries; their conditions need not be identical. Equal entries are not always repeated. In all, about 300,000 compounds went through this assay and about 5,400 (1.8%) were called active. The shares of active, inactive and inconclusive entries below differ from those in the screen. The call rests on the fitted dose curve; tested in HEK293 cells. Where the call is inconclusive, the potency comes from a doubtful curve fit. On the % scale 0 is the no-effect control and ±100 the full control effect; potency means the concentration at half of the fitted maximal effect.", "data": [{"test": "qHTS for inhibitors of binding or entry into cells for Marburg Virus", "settings": "Marburg virus pseudotyped entry inhibition, cell reporter; activity change, negative = inhibition: at 37.8 µM (top of the series) unless noted", "values": [{"smiles": "O=C(NC1CC1)c1cc(-c2ccccn2)nc2ccccc12", "Potency": "inconclusive: 12.6 µM [activator, single point]"}, {"smiles": "O=Cc1ccc(Sc2nnc(-c3ccccc3)o2)c([N+](=O)[O-])c1", "Potency": "inconclusive: 29.1 µM [inhibitor, single point]"}, {"smiles": "CCC(=O)N(CC)c1nc(-c2ccc(OC)cc2)cs1", "Potency": "inconclusive: 6.51 µM [activator, partial curve, poor fit]"}, {"smiles": "FC(F)(F)c1cc(Cl)c2nnc(C(F)(F)Cl)n2c1", "activity change, negative = inhibition": "inactive: -3.88%"}, {"smiles": "COc1cccc2cc(C(=O)OCC(=O)NC3CCCC(C)C3C)c(=O)oc12", "note": "(centres undefined)", "Potency": "inconclusive: 8.91 µM [activator, partial curve, poor fit]"}, {"smiles": "Cc1ccc(-c2noc(Cn3nc(C(=O)O)c4ccccc4c3=O)n2)cc1", "Potency": "inconclusive: 3.55 µM [activator, single point]"}, {"smiles": "COC(=O)c1ccc(/C=C2/SC(=S)N(CCCC(=O)Nc3ccccn3)C2=O)cc1", "Potency": "inconclusive: 1.3 µM [inhibitor, partial curve]"}, {"smiles": "Cc1sc2nc(C3CC3)nc(N3CCN(C(=O)c4ccc(F)cc4)CC3)c2c1C", "Potency": "inconclusive: 20 µM [inhibitor, partial curve, poor fit]"}, {"smiles": "O=C(CN1CCCC1)N1c2ccccc2Sc2ccc(C(F)(F)F)cc21", "Potency": "inconclusive: 35.5 µM [inhibitor, single point]"}, {"smiles": "COc1ccc2c(-c3cccnc3)cc(=O)[nH]c2c1", "Potency": "inconclusive: 2.91 µM [activator, partial curve, poor fit]"}, {"smiles": "COc1ccccc1N1CCN(C(=O)/C=C/c2cccc([N+](=O)[O-])c2)CC1", "activity change, negative = inhibition": "inactive: -15.5% [at 46.1 µM]"}, {"smiles": "CS(=O)(=O)N1CCc2cc(S(=O)(=O)NCCNS(=O)(=O)c3ccc4c(c3)CCN4S(C)(=O)=O)ccc21", "activity change, negative = inhibition": "inactive: 12.6% [at 46.1 µM]"}, {"smiles": "COc1cc(NC(=O)CN2C(=O)C(c3ccccc3)=NC23CCCCCC3)cc(OC)c1", "Potency": "inconclusive: 0.794 µM [inhibitor, full curve, poor fit]"}, {"smiles": "COc1ccc(-c2nc3scc(-c4ccc(OC)c(OC)c4)c3c(=O)o2)cc1", "Potency": "inconclusive: 4.11 µM [inhibitor, partial curve, poor fit]"}, {"smiles": "Cc1ccc(Cn2c(CCC(=O)O)nc3ncccc3c2=O)cc1", "Potency": "inconclusive: 10 µM [activator, partial curve, poor fit]"}, {"smiles": "FC(F)Oc1ccc(NC(=S)NCc2ccccc2)cc1", "Potency": "inconclusive: 6.31 µM [activator, single point]"}, {"smiles": "COc1ccc(C(=O)N/N=C/c2ccccc2OC(=O)c2ccccc2)cc1", "Potency": "active: 12.6 µM"}, {"smiles": "COc1ccccc1C1NC(c2ccccc2OC)C(C)C(=O)C1C", "note": "(centres undefined)", "Potency": "inconclusive: 16.4 µM [inhibitor, partial curve, poor fit]"}, {"smiles": "Cc1cc(N2CCC(C(=O)N3CCN(c4cccc(C)c4C)CC3)CC2)n2ncnc2n1", "Potency": "inconclusive: 8.2 µM [inhibitor, partial curve, poor fit]"}, {"smiles": "O=C(Nc1cccc(NC(=O)c2ccc(-c3cccc(Br)c3)o2)c1)c1ccco1", "Potency": "inconclusive: 20.6 µM [inhibitor, single point]"}, {"smiles": "O=C(CCS(=O)(=O)c1ccc(F)cc1)Nc1nnc(-c2ccco2)o1", "Potency": "inconclusive: 6.31 µM [inhibitor, partial curve, poor fit]"}, {"smiles": "CCOc1ccc(C2Nc3c(C)cccc3-c3cc(C)nn32)cc1", "note": "(centres undefined)", "Potency": "inconclusive: 35.5 µM [inhibitor, single point]"}, {"smiles": "O=C(CC(c1ccccc1)c1ccccc1)NCC(O)c1ccc([N+](=O)[O-])cc1", "note": "(centres undefined)", "Potency": "inconclusive: 7.94 µM [inhibitor, partial curve, poor fit]"}, {"smiles": "CC(=O)Nc1ccc(NC(=O)C/C(C)=N/NC(=O)COc2cc(C)c(Br)cc2Br)cc1", "Potency": "inconclusive: 10 µM [activator, partial curve, poor fit]"}, {"smiles": "CCC(Sc1nc2ccccc2c(=O)n1CC1CCCO1)C(=O)NCc1cccnc1", "note": "(centres undefined)", "Potency": "inconclusive: 25.9 µM [activator, single point]"}, {"smiles": "CCOc1ccccc1C(=O)Nc1c(C(=O)Nc2ccc(F)cc2)oc2ccccc12", "Potency": "inconclusive: 2 µM [inhibitor, full curve, poor fit]"}, {"smiles": "CCOC(=O)Nc1cccc(OCC(=O)Nc2ccc(OC)cc2OC)c1", "Potency": "inconclusive: 18.3 µM [inhibitor, single point]"}, {"smiles": "CCc1ccc(NC(=O)Cn2c3[n+](c4c(F)c(F)ccc42)CCCCC3)cc1", "activity change, negative = inhibition": "inactive: -3.71% [at 46.1 µM]"}, {"smiles": "COc1ccc(Nc2cc(C(=O)NC3CCC(C)CC3)c3ccccc3n2)cc1OC", "note": "(centres undefined)", "activity change, negative = inhibition": "inactive: 7.41% [at 46.1 µM]"}, {"smiles": "CN(CCCC(=O)Nc1ccccc1F)S(=O)(=O)c1ccc(F)cc1", "activity change, negative = inhibition": "inactive: 7.8%"}, {"smiles": "Cc1ccc(C)c(NC(=S)NNC(=O)c2ccco2)c1", "activity change, negative = inhibition": "inactive: 19.8%"}, {"smiles": "CC1CN(C(=O)CCNC(=O)c2ccc(Br)cc2)CC(C)O1", "note": "(centres undefined)", "activity change, negative = inhibition": "inactive: 4.61% [at 46.1 µM]"}, {"smiles": "CCCCCCCCCCCCCCCCCCOC[C@H](COP(=O)([O-])OCC[N+](C)(C)C)OC", "Potency": "inactive and inconclusive: 29.1 µM [inhibitor, single point]"}, {"smiles": "CSCCC(NS(=O)(=O)c1ccc(Cl)cc1)C(=O)N1CCN(c2ccccc2)CC1", "note": "(centres undefined)", "Potency": "inconclusive: 1.26 µM [inhibitor, single point]"}]}]}
